# Source: the supplement of paper PMC12889115
# The list shows a part of the results. These are raw signals, not scaled to a control.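 In the initial screen, polymyxin B was used at a concentration that permeabilizes Salmonella's outer membrane but not its inner membrane. Maximum growth was set by DMSO wells with or without polymyxin B. Since plates varied, data were ranked per plate, and compounds giving the lowest OD600 advanced as hits.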
# Test system: Salmonella enterica serovar Typhimurium SL1344
# Test: bacterial growth OD600 after 18 h with compound and polymyxin B; higher = more bacterial growth (less inhibition)
# Conditions: 50 µM, Mueller-Hinton broth
Structure (SMILES),bacterial growth OD600 (polymyxin B 1 µg/mL),bacterial growth OD600 (polymyxin B 0.75 µg/mL)
COCCC(=O)N1CCC(Oc2ccc(C(=O)N[C@H](C(=O)OC)C(C)C)cc2)CC1,0.894,
Cn1cc(CN2CCCC(CNC(=O)c3cccs3)C2)c(-c2ccccc2)n1 (stereo unspecified),0.941,
Cc1cc(F)ccc1NC(=O)CCC1CCCN(C(=O)Cc2ccc3c(c2)OCO3)C1 (stereo unspecified),0.869,
CCC(NC(=O)c1cc(COc2ccc3ncccc3c2)on1)c1ccncc1 (stereo unspecified),1.02,
CCCn1c(C)c(CC(=O)N[C@@H](C)C(N)=O)c2c1CC(C)(C)CC2=O,0.866,
O=C(N1CCOC(Cc2ccccc2)C1)C12CC3CC(CC(C3)C1)C2 (stereo unspecified),,0.025
COc1ccccc1C(=O)N[C@@H]1c2ccccc2C2(CCN(C(=O)Cc3ccsc3)CC2)[C@H]1OC,,0.528
O=C(Nc1cccc(N2CCNC2=O)c1)C1CC12CCN(C(=O)/C=C/c1cc(F)ccc1F)CC2 (stereo unspecified),,0.832
O=C(NC1CC(=O)N(CCc2cccc(Cl)c2)C1)C1CCCC1 (stereo unspecified),0.8,
O=C(NC1CC(=O)N(Cc2ccccc2C(F)(F)F)C1)c1ccccn1 (stereo unspecified),0.909,
CCN(CC1CCCN(CCc2cccc(F)c2)C1)C(=O)CCc1ccccn1 (stereo unspecified),1.03,
CC(C)N1CCC(C(=O)N2CCCC(CCc3ccc(F)c(F)c3)C2)CC1 (stereo unspecified),,0.001
CCc1ccc(CN(C)C(=O)C2CCC(=O)N(CCN3CCOCC3)C2)nc1 (stereo unspecified),0.948,
COc1cccc(CN2CCN(Cc3ccccc3OC)CC2CCO)c1 (stereo unspecified),0.886,
CCOC(=O)CC1CCCCN1Cc1nc(-c2cc(OC)ccc2F)oc1C (stereo unspecified),0.686,
O=C(NC1CC(=O)N(Cc2cccc3ccccc23)C1)c1ccoc1 (stereo unspecified),0.891,

# Ordered by number of heavy atoms (low to high): some entries from above
Structure (SMILES),bacterial growth OD600 (polymyxin B 1 µg/mL),bacterial growth OD600 (polymyxin B 0.75 µg/mL)
O=C(NC1CC(=O)N(Cc2ccccc2C(F)(F)F)C1)c1ccccn1 (stereo unspecified),0.909,
COc1cccc(CN2CCN(Cc3ccccc3OC)CC2CCO)c1 (stereo unspecified),0.886,
Cn1cc(CN2CCCC(CNC(=O)c3cccs3)C2)c(-c2ccccc2)n1 (stereo unspecified),0.941,

# Additional structures:

Structure (SMILES),bacterial growth OD600 (polymyxin B 1 µg/mL),bacterial growth OD600 (polymyxin B 0.75 µg/mL)
COc1ccc(CCCNC(=O)c2ccc(N3CCCC(O)C3)nc2)cc1 (stereo unspecified),0.978,
CC1CCN(Cc2nnnn2CC(=O)NCc2scnc2-c2ccccc2)CC1,0.912,
Cc1nc(CNC(=O)Cn2nnnc2CN2CCC(C)CC2)sc1C,,0.704
Cn1ccnc1CNC(=O)c1csc2nc(-c3ccccc3Cl)cn12,1.14,
CC(C)CCCC1CN(S(=O)(=O)N2CCOCC2)CCO1 (stereo unspecified),,0.785
COc1cccc(CCC2CCCN(C(=O)c3ccc(C)nc3)C2)c1 (stereo unspecified),,0.689
COCCN1CC(CNc2nncc(-c3ccc(Cl)cc3)n2)CC1=O (stereo unspecified),0.919,
C[C@@H]1CN(Cc2nc(NCc3cccs3)c3ccccc3n2)C[C@H](C)O1,,0.756
COc1cccc(CN2CCCC3(CCN(C(=O)CC(C)C)C3)C2=O)c1OC (stereo unspecified),0.901,
COc1ccc(F)c(CC2(CCC(=O)N(C)CC(O)c3ccccc3)CCC(=O)N2)c1 (stereo unspecified),,0.881
COc1ccc(OC2CCN(Cc3nc(-c4ccccn4)no3)CC2)cc1,0.89,
Cn1cc(CNc2ccc(C(=O)N3CCC(CCn4cccn4)CC3)cn2)cn1,,0.803
COCCNC(=O)c1ccc(OC2CCN(Cc3cnn(C(C)C)c3)CC2)c(Cl)c1,0.973,
NC(=O)[C@H](Cc1ccccc1)NC1CCN(c2cccc(NC(=O)CCCc3ccccc3)c2)CC1,,0.038
OC(COc1cccc(CN2CCN(C3CCCCC3)CC2)c1)CN1CCOCC1 (stereo unspecified),0.86,
